# Test results reported in the supplement of paper PMC8728848.
# The list shows a part of the results.
# B1: Wzz (Escherichia coli) (protein)
# chain: MRTWKFPSVRVMMRVENNNVSGQNHDPEQIDLIDLLVQLWRGKMTIIISVIVAIVLAIGYLAVAKEKWTSTAIITQPDVGQIAGYNNAMNVIYGQAAPKVSDLQETLIGRFSSAFSALAETLDNQEEPEKLTIEPSVKNQQLPLTVSYVGQTAEGAQMKLAQYIQQVDDKVNQELEKDLKDNIALGRKNLQDSLRTQEVVAQEQKDLRIRQIQEALQYANQAQVTKPQIQQTGEDITQDTLFLLGSEALESMIKHEATRPLVFSSNYYQTRQNLLDIDNLDVDKLDIHAYLYVMKPTLPIRRDSPKKAITLILAVLLGGMVGAGIVLGRNALRNYNAK
# Columns and labels:
# Assay in all cases: glycan array binding signal (z-score within array); higher = stronger binding
# Conditions in all cases: glycan notation: IUPAC condensed, linker removed
# [1] = target: Gal(b1-3)[Fuc(a1-4)]GlcNAc(b1-6)GalNAc
# Summary of the method: (§1)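 Glycan array data came from 3228 arrays in the Consortium for Functional Glycomics database, and only arrays with an available protein sequence were kept. Glycan names were put into IUPAC-condensed notation, and columns mapping to the same glycan were averaged. The binding signal is a within-array Z-score, averaged across arrays of one protein sequence run at different concentrations or buffers and across linkers. A negative Z-score can be read as non-binding.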
# [2] = target: Gal(b1-3)[GlcNAc(b1-6)]GalNAc
# Summary of the method: as §1
# [3] = target: Gal(b1-3)[Neu5Ac(a2-6)]GalNAc
# Summary of the method: as §1
# [4] = target: Gal(b1-3)[Neu5Ac(a2-6)]GlcNAc(b1-4)Gal(b1-4)Glc
# Summary of the method: as §1
# [5] = target: Gal(b1-3)[Neu5Ac(b2-6)]GalNAc
# Summary of the method: as §1
# Gal(b1-4)Gal = target: Gal(b1-4)Gal
# Summary of the method: as §1
# [6] = target: Gal(b1-4)GalNAc(a1-3)[Fuc(a1-2)]Gal(b1-4)GlcNAc
# Summary of the method: as §1
# [7] = target: Gal(b1-4)GalNAc(b1-3)[Fuc(a1-2)]Gal(b1-4)GlcNAc
# Summary of the method: as §1
# Gal(b1-4)Glc = target: Gal(b1-4)Glc
# Summary of the method: as §1
# Gal(b1-4)Glc6S = target: Gal(b1-4)Glc6S
# Summary of the method: as §1
# Gal(b1-4)GlcNAc = target: Gal(b1-4)GlcNAc
# Summary of the method: as §1
# [8] = target: Gal(b1-4)GlcNAc(a1-6)Gal(b1-4)GlcNAc
# Summary of the method: as §1
# Gal(b1-4)GlcNAc(b1-2)Man = target: Gal(b1-4)GlcNAc(b1-2)Man
# Summary of the method: as §1
# [9] = target: Gal(b1-4)GlcNAc(b1-2)Man(a1-3)Man(b1-4)GlcNAc(b1-4)GlcNAc
# Summary of the method: as §1
# [10] = target: Gal(b1-4)GlcNAc(b1-2)Man(a1-3)[Gal(b1-4)GlcNAc(b1-2)Man(a1-6)]Man(b1-4)GlcNAc(b1-4)GlcNAc
# Summary of the method: as §1
# [11] = target: Gal(b1-4)GlcNAc(b1-2)Man(a1-3)[Gal(b1-4)GlcNAc(b1-2)Man(a1-6)]Man(b1-4)GlcNAc(b1-4)[Fuc(a1-6)]GlcNAc
# Summary of the method: as §1
# [12] = target: Gal(b1-4)GlcNAc(b1-2)Man(a1-3)[Gal(b1-4)GlcNAc(b1-2)Man(a1-6)][Gal(b1-4)GlcNAc(b1-4)]Man(b1-4)GlcNAc(b1-4)[Fuc(a1-6)]GlcNAc
# Summary of the method: as §1
# [13] = target: Gal(b1-4)GlcNAc(b1-2)Man(a1-3)[Gal(b1-4)GlcNAc(b1-2)Man(a1-6)][GlcNAc(b1-4)]Man(b1-4)GlcNAc(b1-4)[Fuc(a1-6)]GlcNAc
# Summary of the method: as §1
# [14] = target: Gal(b1-4)GlcNAc(b1-2)Man(a1-3)[GlcNAc(b1-2)Man(a1-6)]Man(b1-4)GlcNAc(b1-4)GlcNAc
# Summary of the method: as §1
# [15] = target: Gal(b1-4)GlcNAc(b1-2)Man(a1-3)[GlcNAc(b1-4)][Gal(b1-4)GlcNAc(b1-2)Man(a1-6)]Man(b1-4)GlcNAc(b1-4)GlcNAc
# Summary of the method: as §1
# [16] = target: Gal(b1-4)GlcNAc(b1-2)Man(a1-3)[Man(a1-6)]Man(b1-4)GlcNAc(b1-4)GlcNAc
# Summary of the method: as §1
# [17] = target: Gal(b1-4)GlcNAc(b1-2)Man(a1-6)Man(b1-4)GlcNAc(b1-4)GlcNAc
# Summary of the method: as §1
# [18] = target: Gal(b1-4)GlcNAc(b1-2)Man(a1-6)[GlcNAc(b1-2)Man(a1-3)]Man(b1-4)GlcNAc(b1-4)GlcNAc
# Summary of the method: as §1
# [19] = target: Gal(b1-4)GlcNAc(b1-2)Man(a1-6)[Man(a1-3)]Man(b1-4)GlcNAc(b1-4)GlcNAc
# Summary of the method: as §1
# [20] = target: Gal(b1-4)GlcNAc(b1-2)[Gal(b1-4)GlcNAc(b1-4)]Man(a1-3)[Gal(b1-4)GlcNAc(b1-2)Man(a1-6)]Man(b1-4)GlcNAc(b1-4)GlcNAc
# Summary of the method: as §1
# [21] = target: Gal(b1-4)GlcNAc(b1-2)[Gal(b1-4)GlcNAc(b1-4)]Man(a1-3)[Gal(b1-4)GlcNAc(b1-2)[Gal(b1-4)GlcNAc(b1-6)]Man(a1-6)]Man(b1-4)GlcNAc(b1-4)GlcNAc
# Summary of the method: as §1
# [22] = target: Gal(b1-4)GlcNAc(b1-2)[Gal(b1-4)GlcNAc(b1-4)]Man(a1-3)[GlcNAc(b1-4)][Gal(b1-4)GlcNAc(b1-2)Man(a1-6)]Man(b1-4)GlcNAc(b1-4)GlcNAc
# Summary of the method: as §1
# [23] = target: Gal(b1-4)GlcNAc(b1-2)[Gal(b1-4)GlcNAc(b1-4)]Man(a1-3)[GlcNAc(b1-4)][Gal(b1-4)GlcNAc(b1-2)[Gal(b1-4)GlcNAc(b1-6)]Man(a1-6)]Man(b1-4)GlcNAc(b1-4)GlcNAc
# Summary of the method: as §1
# [24] = target: Gal(b1-4)GlcNAc(b1-2)[Gal(b1-4)GlcNAc(b1-6)]Man(a1-6)[Gal(b1-4)GlcNAc(b1-2)Man(a1-3)]Man(b1-4)GlcNAc(b1-4)GlcNAc
# Summary of the method: as §1
# [25] = target: Gal(b1-4)GlcNAc(b1-2)[Gal(b1-4)GlcNAc(b1-6)]Man(a1-6)[Gal(b1-4)GlcNAc(b1-2)Man(a1-3)]Man(b1-4)GlcNAc(b1-4)[Fuc(a1-6)]GlcNAc
# Summary of the method: as §1
# [26] = target: Gal(b1-4)GlcNAc(b1-2)[Gal(b1-4)GlcNAc(b1-6)]Man(a1-6)[GlcNAc(b1-4)][Gal(b1-4)GlcNAc(b1-2)Man(a1-3)]Man(b1-4)GlcNAc(b1-4)GlcNAc
# Summary of the method: as §1
# [27] = target: Gal(b1-4)GlcNAc(b1-2)[Gal(b1-4)GlcNAc(b1-6)]Man(a1-6)[GlcNAc(b1-4)][Gal(b1-4)GlcNAc(b1-2)[Gal(b1-4)GlcNAc(b1-4)]Man(a1-3)]Man(b1-4)GlcNAc(b1-4)[Fuc(a1-6)]GlcNAc
# Summary of the method: as §1
# [28] = target: Gal(b1-4)GlcNAc(b1-3)Gal(b1-3)GalNAc
# Summary of the method: as §1
# [29] = target: Gal(b1-4)GlcNAc(b1-3)Gal(b1-3)GlcNAc
# Summary of the method: as §1
# [30] = target: Gal(b1-4)GlcNAc(b1-3)Gal(b1-4)Glc
# Summary of the method: as §1
# [31] = target: Gal(b1-4)GlcNAc(b1-3)Gal(b1-4)GlcNAc
# Summary of the method: as §1
# [32] = target: Gal(b1-4)GlcNAc(b1-3)Gal(b1-4)GlcNAc(b1-2)Man(a1-3)[Gal(b1-4)GlcNAc(b1-3)Gal(b1-4)GlcNAc(b1-2)Man(a1-6)]Man(b1-4)GlcNAc(b1-4)GlcNAc
# Summary of the method: as §1
# [33] = target: Gal(b1-4)GlcNAc(b1-3)Gal(b1-4)GlcNAc(b1-2)Man(a1-3)[Gal(b1-4)GlcNAc(b1-3)Gal(b1-4)GlcNAc(b1-2)Man(a1-6)]Man(b1-4)GlcNAc(b1-4)[Fuc(a1-6)]GlcNAc
# Summary of the method: as §1
binder,measurement,setting,value
B1,glycan array binding signal (z-score),[1],0.701
same,glycan array binding signal (z-score),[2],-0.468
same,glycan array binding signal (z-score),[3],-0.967
same,glycan array binding signal (z-score),[4],-0.112
same,glycan array binding signal (z-score),[5],-0.409
same,glycan array binding signal (z-score),Gal(b1-4)Gal,1.14
same,glycan array binding signal (z-score),[6],-0.875
same,glycan array binding signal (z-score),[7],-0.822
same,glycan array binding signal (z-score),Gal(b1-4)Glc,-0.478
same,glycan array binding signal (z-score),Gal(b1-4)Glc6S,1.25
same,glycan array binding signal (z-score),Gal(b1-4)GlcNAc,-0.275
same,glycan array binding signal (z-score),[8],-0.711
same,glycan array binding signal (z-score),Gal(b1-4)GlcNAc(b1-2)Man,0.461
same,glycan array binding signal (z-score),[9],-0.337
same,glycan array binding signal (z-score),[10],-0.148
same,glycan array binding signal (z-score),[11],0.201
same,glycan array binding signal (z-score),[12],-0.765
same,glycan array binding signal (z-score),[13],-0.511
same,glycan array binding signal (z-score),[14],-0.957
same,glycan array binding signal (z-score),[15],0.282
same,glycan array binding signal (z-score),[16],0.051
same,glycan array binding signal (z-score),[17],-0.26
same,glycan array binding signal (z-score),[18],-0.334
same,glycan array binding signal (z-score),[19],0.951
same,glycan array binding signal (z-score),[20],0.041
same,glycan array binding signal (z-score),[21],-0.395
same,glycan array binding signal (z-score),[22],0.313
same,glycan array binding signal (z-score),[23],-0.062
same,glycan array binding signal (z-score),[24],-0.211
same,glycan array binding signal (z-score),[25],-0.247
same,glycan array binding signal (z-score),[26],0.477
same,glycan array binding signal (z-score),[27],-0.749
same,glycan array binding signal (z-score),[28],-0.721
same,glycan array binding signal (z-score),[29],-0.29
same,glycan array binding signal (z-score),[30],-0.169
same,glycan array binding signal (z-score),[31],-0.383
same,glycan array binding signal (z-score),[32],-0.619
same,glycan array binding signal (z-score),[33],0.185

# A second format for some results above:
binder	measurement	setting	value
B1	glycan array binding signal (z-score)	[31]	-0.383
same	glycan array binding signal (z-score)	[32]	-0.619
same	glycan array binding signal (z-score)	[33]	0.185
